Experimental data published in patent US9670363B2, “Substituted anthraquinone dyes for cellular stains and enzyme detection” (Biotium, Inc., priority 2011, dated 2017).
The name of at least one read-out is uncertain.

System: HeLa cells
Assay: Staining of live (unfixed) HeLa cultures; selective staining of dead cells
Format: cell-based
Protocol: HeLa cells were seeded at a density of 2×10^4 cells in 100 uL culture medium per well in tissue culture treated, optical bottom, black 96-well plates. One day after seeding, 1 uL of 500 uM dye stock in DMSO was added directly to the culture medium (100 uL) and mixed by trituration. The cells were incubated at room temperature for five minutes. The culture medium containing dye was removed and replaced by 100 uL phosphate buffered saline. Cellular fluorescence was imaged using an the Cy5 filter set of an Olympus IX71 epifluorescence microscope and a Q-Imaging Retiga 2000R Fast 1394 mono camera (FIG. 5). […] Probes that can selectively detect dead cells are useful in cell viability assays, which are widely practiced in drug screening.

| SMILES | cell membrane permeability |
| --- | --- |
| CN(C)CCNc1ccc(O)c2c1C(=O)c1c(O)ccc(NCCNC(=O)C3CCCN3)c1C2=O (centres unmarked) [Dye No. 1] | cell membrane permeable |
| CN(C)CCNc1ccc(O)c2c1C(=O)c1c(O)ccc(NCCNC(=N)CCCCC(=N)NCCNc3ccc(O)c4c3C(=O)c3c(O)ccc(NCCN(C)C)c3C4=O)c1C2=O [Dye No. 7] | cell membrane impermeable |
